Source: patent US11806386B2, “Type I diabetes therapy” (St. Vincent's Institute of Medical Research, priority 2017, dated 2023)
At least one compound was matched to its structure with a doubt left.

What was measured:
[1] = test system: spontaneous diabetes in NOD and TIP2 mice; test: Diabetes incidence, treatment in early life (Example 1); type: in vivo
[2] = test system: IFN-induced genes in pancreatic islets; test: Expression of IFN-induced genes, Cxcl10 and Cd3e in pancreatic islets after oral dosing (real-time PCR); type: in vivo, NOD mice; details: 80 mg/kg daily oral gavage from 2 to 4 weeks of age, islets isolated 2 h after last dose
[3] = test system: insulitis in pancreas sections; test: Histological analysis of insulitis (Example 1); type: in vivo, NOD and TIP2 mice; details: combination with proinsulin-specific tolerance in TIP2 mice (cohort 4) vs cohort 3
[4] = test system: insulin B9-23-specific CD4+ T cells; test: Frequency of antigen-experienced insulin-specific CD4+ T cells in peripheral lymphoid tissue (tetramer, flow cytometry); type: in vivo, NOD and TIP2 mice; details: ruxolitinib alone or combined with proinsulin-specific immunotherapy, vs vehicle-treated non-transgenic mice; data not shown

## N#CC[C@H](C1CCCC1)n1cc(-c2ncnc3[nH]ccc23)cn1 [ruxolitinib]
[1]; combination therapy: TIP2 mice re-expressing proinsulin plus 80 mg/kg daily oral from 2 to 4 weeks (cohort 4), log-rank not significant
  protection from diabetes at 24 weeks of age (168 days): protected from diabetes
[1]; monotherapy in NOD mice, 80 mg/kg daily oral from 2 to 4 weeks (cohort 2)
  protection from diabetes at 24 weeks of age (168 days): not protected
[2]; relative to β-actin
  expression of IFN-induced genes (Isg15, Oas1a, Oas1b, Ifit1; all bar Mx1) in islets: significantly reduced
[2]; versus vehicle
  Cxcl10 or Cd3e mRNA expression in islets: No difference
[3]; p<0.0001
  percentage of islets completely free of inflammation (insulitis score 0): increase
[3]; p=0.017
  islet infiltration (insulitis score) at 19 to 28 weeks of age: significantly reduced islet infiltration
[4]
  proportion of antigen-experienced (CD44hi) insulin B9-23-specific CD4+ T cells: decline
